In doi:10.1101/2023.12.07.570680:
No constants are given. Whether binding was seen depends on the method and setting. Some results given as binding are weak or reduced against the parent protein; the word gives no strength. Sequences can lack the tags named with a protein.

Experiments:
Experiment in all cases: two-hybrid
[1] = molecular target: T1, MatK (yeast two-hybrid fusion) (UniProt P56784)
T1 sequence: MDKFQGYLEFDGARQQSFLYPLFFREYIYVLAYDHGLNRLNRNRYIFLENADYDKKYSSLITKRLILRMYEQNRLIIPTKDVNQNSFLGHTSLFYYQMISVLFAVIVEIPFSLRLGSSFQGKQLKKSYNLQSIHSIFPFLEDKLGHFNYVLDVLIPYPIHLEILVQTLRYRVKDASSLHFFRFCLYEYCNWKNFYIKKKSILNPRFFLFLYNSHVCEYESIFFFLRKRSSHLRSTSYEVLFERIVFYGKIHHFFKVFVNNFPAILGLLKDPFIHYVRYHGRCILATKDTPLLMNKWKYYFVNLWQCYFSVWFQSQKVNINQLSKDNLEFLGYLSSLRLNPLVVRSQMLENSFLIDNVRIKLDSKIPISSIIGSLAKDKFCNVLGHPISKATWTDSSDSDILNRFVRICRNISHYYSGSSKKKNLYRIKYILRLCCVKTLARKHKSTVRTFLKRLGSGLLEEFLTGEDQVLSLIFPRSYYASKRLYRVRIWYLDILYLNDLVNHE

[2] = molecular target: T2, CFM2 (yeast two-hybrid fusion, transit peptide removed) (Arabidopsis thaliana) (UniProt Q8L7C2)
T2 sequence: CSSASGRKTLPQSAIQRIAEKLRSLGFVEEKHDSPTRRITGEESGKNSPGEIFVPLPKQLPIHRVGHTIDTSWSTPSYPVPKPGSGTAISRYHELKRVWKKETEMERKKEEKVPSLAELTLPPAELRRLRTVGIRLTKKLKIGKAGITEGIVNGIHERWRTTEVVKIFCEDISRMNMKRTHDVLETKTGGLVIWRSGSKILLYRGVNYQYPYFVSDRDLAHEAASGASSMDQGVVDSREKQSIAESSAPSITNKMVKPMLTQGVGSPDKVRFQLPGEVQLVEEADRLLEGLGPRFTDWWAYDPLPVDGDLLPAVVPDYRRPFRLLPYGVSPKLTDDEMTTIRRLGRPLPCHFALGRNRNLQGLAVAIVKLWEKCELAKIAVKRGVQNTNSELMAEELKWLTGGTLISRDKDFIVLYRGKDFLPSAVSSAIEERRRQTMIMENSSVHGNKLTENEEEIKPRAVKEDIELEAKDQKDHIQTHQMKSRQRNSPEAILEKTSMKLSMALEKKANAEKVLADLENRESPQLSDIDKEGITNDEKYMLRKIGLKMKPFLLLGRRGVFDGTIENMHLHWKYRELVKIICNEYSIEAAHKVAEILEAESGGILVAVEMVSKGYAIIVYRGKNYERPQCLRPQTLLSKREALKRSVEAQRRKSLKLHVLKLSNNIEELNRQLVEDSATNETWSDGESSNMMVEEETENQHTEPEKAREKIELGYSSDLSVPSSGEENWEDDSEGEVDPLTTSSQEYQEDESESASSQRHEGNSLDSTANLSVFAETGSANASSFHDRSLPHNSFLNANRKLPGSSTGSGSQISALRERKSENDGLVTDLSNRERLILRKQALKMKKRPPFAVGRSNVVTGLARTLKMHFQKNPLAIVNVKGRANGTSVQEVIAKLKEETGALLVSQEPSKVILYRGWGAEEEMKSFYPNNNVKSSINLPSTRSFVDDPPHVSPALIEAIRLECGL

[3] = molecular target: T3, EMB976 (yeast two-hybrid fusion, transit peptide removed) (Arabidopsis thaliana) (UniProt O04647)
T3 sequence: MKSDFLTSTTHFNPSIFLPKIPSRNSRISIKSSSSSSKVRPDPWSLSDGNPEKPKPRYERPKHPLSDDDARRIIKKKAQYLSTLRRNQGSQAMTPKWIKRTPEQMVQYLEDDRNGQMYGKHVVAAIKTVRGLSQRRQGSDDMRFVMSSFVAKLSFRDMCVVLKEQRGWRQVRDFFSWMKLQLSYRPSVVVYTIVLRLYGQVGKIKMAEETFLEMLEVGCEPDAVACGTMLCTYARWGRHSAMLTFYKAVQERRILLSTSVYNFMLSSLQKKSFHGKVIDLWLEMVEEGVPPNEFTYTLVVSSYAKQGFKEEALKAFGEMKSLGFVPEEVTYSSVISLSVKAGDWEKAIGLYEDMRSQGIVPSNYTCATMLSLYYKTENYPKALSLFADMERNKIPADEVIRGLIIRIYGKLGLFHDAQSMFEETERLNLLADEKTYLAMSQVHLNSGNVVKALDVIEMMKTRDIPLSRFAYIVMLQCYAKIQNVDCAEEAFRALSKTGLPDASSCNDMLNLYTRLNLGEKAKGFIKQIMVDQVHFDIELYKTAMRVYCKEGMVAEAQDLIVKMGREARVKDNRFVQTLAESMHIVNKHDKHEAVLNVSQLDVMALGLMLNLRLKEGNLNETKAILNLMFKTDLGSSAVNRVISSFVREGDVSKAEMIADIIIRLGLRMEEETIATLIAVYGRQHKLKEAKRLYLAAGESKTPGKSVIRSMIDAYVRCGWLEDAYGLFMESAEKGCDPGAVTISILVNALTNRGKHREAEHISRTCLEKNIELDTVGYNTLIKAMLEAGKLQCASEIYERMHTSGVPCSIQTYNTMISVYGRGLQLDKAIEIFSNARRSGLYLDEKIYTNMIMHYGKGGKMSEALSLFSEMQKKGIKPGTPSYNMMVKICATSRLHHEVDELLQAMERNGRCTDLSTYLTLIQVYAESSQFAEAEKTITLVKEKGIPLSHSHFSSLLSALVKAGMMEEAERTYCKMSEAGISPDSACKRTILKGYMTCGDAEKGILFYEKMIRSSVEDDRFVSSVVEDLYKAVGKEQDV

binding [1]: no binding
binding [2]: binds
binding [3]: no binding
B1: EMB1006 (yeast two-hybrid fusion, transit peptide removed) (protein, UniProt Q9FGR7 45-723)
chain: ATSPSSSSSSPSIFLSCFDDALPDKIQQPENSTINSEESECEEEDDEEGDDFTDPILKFFKSRTLTSESTADPARESKFSLQKNRRTSWHLAPDFADPETEIESKPEESVFVTNQQTLGVHIPFESGVAREILELAKNLKENQTLGEMLSGFERRVSDTECVEALVMMGESGFVKSCLYFYEWMSLQEPSLASPRACSVLFTLLGRERMADYILLLLSNLPDKEEFRDVRLYNAAISGLSASQRYDDAWEVYEAMDKINVYPDNVTCAILITTLRKAGRSAKEVWEIFEKMSEKGVKWSQDVFGGLVKSFCDEGLKEEALVIQTEMEKKGIRSNTIVYNTLMDAYNKSNHIEEVEGLFTEMRDKGLKPSAATYNILMDAYARRMQPDIVETLLREMEDLGLEPNVKSYTCLISAYGRTKKMSDMAADAFLRMKKVGLKPSSHSYTALIHAYSVSGWHEKAYASFEEMCKEGIKPSVETYTSVLDAFRRSGDTGKLMEIWKLMLREKIKGTRITYNTLLDGFAKQGLYIEARDVVSEFSKMGLQPSVMTYNMLMNAYARGGQDAKLPQLLKEMAALNLKPDSITYSTMIYAFVRVRDFKRAFFYHKMMVKSGQVPDPRSYEKLRAILEDKAKTKNRKDKTAILGIINSKFGRVKAKTKGKKDEFWKYKTNRTTSPGRHRS
